# From the supplement of paper PMC4683952
# Some of the results follow. Rule as the data show it: active = 2 or more and inactive = the rest. Most values lie within the scatter of the assay; repeated measurements hardly agree.
# Test system: Lgr5 (MarsCy1-Lgr5-EGFP, U2OS)
# Experiment: cell-surface Lgr5 expression (SCi1 fluorescence, background-subtracted) relative to WT DMSO (fold of DMSO control); higher = more Lgr5 at the plasma membrane
# Conditions: U2OS MarsCy1-Lgr5-EGFP stable; treatment time: overnight; library: ActiProbe-5K (TimTec); 25 µM
row,Compound,cell-surface Lgr5 expression
1,O=[N+]([O-])c1cc(/C=N\c2ccc(S(=O)(=O)NC3NC=CS3)cc2)c2c(c1)COCO2 (stereo not given),inactive: 0.98
2,N=c1oc2c(Br)cc(Br)cc2cc1-c1nc2ccccc2[nH]1,inactive: 0.896
3,O=C1N=C(N2CCOCC2)S/C1=C\C1=Cc2ccccc2OC1,inactive: 1.23
4,Sc1nc2ccccc2n1-c1ccccc1,inactive: 1.4
5,Sc1nnc(-c2ccc(Cl)cc2Cl)o1,inactive: 1.25
6,COC1CCC(OC)CC1 (stereo not given),inactive: 1.18
7,COc1cc([N+](=O)[O-])c(OC)cc1Br,inactive: 1.53
8,O=C(OCCN(CC12CC3CC(CC(C3)C1)C2)C(=O)c1ccco1)c1ccco1,inactive: 1.21
9,O=c1[nH]cnc2c1ncn2C1O[C@@H](CO)[C@H](O)[C@@H]1O (stereo not given in full),inactive: 1.31
10,Cc1n[nH]c(N)c1Br,inactive: 1.18
11,O=C(CCCCCCC(=O)N/N=C/c1cc(Br)cs1)N/N=C\c1cc(Br)cs1,inactive: 1.15
12,C1CCN(c2nc3nonc3nc2N2CCCC2)C1,inactive: 1.21
13,NNC(=S)Nc1ccccc1,inactive: 0.943
14,O=c1cn[nH]c(=S)n1/N=C/c1cc(Br)c(O)c(Br)c1,inactive: 1.23
15,CCCCSCC(O)CN1C(=O)NC(C)(C)C1=O (stereo not given),inactive: 1.13
16,CC(C(=O)NN)n1cnc2sc3c(c2c1=O)CCCC3 (stereo not given),inactive: 1.11
17,CC1=NN(C(=S)c2ccc(C)cc2)C(C)(O)C1CC(C)C (stereo not given),inactive: 0.987
18,CN(C)CCCN1C(=O)C(O)=C(C(=O)c2ccco2)C1c1ccco1 (stereo not given),inactive: 1.17
19,OCc1cc(C(F)(F)F)cc(C(F)(F)F)c1,inactive: 1.13
20,Cc1ccc2c(c1)C1OCCC1C(c1ccncc1)N2 (stereo not given),inactive: 1.39
21,Cc1cc2c(c(=O)[nH]1)C(=O)O/C2=C/c1ccc(C)o1,inactive: 1.29
22,CC1=C(C(=O)OC(C)C)C(c2cccs2)C2=C(CC(C)(C)CC2=O)N1 (stereo not given),inactive: 1.2
23,N#Cc1sc2nc3c(cc2c1N)CCCCCC3,inactive: 1.55
24,CCCCCC(C)(C)NC(=S)N(C1CCCCC1)C1CCCCC1,inactive: 1.2
25,CC(=O)c1c(C)nc(C)nc1NC(=O)C(C)C,inactive: 0.995
26,N#CC12CC1(C#N)C1(N=C2N)OCCS1 (stereo not given),inactive: 1.13
27,Cc1nc(C)c(C#N)c(N)c1Br,inactive: 1.08
28,CC(C)N1CCc2c(sc(N)c2C#N)C1,inactive: 0.985
29,Cc1nc2cc(S(=O)(=O)C(F)(F)F)ccc2s1,inactive: 1.26
30,S=c1oc2ccccc2n1Cn1c(=S)oc2ccccc21,inactive: 1.1

# Sorted by length of the SMILES (descending): part of the list above.
row,Compound,cell-surface Lgr5 expression
21,Cc1cc2c(c(=O)[nH]1)C(=O)O/C2=C/c1ccc(C)o1,inactive: 1.29
26,N#CC12CC1(C#N)C1(N=C2N)OCCS1 (stereo not given),inactive: 1.13
10,Cc1n[nH]c(N)c1Br,inactive: 1.18
